For two substances, binding results are on record in doi:10.1101/2021.12.07.471635.

Chains of the proteins cited; added tags and fusions are not shown.
UniProt P51114: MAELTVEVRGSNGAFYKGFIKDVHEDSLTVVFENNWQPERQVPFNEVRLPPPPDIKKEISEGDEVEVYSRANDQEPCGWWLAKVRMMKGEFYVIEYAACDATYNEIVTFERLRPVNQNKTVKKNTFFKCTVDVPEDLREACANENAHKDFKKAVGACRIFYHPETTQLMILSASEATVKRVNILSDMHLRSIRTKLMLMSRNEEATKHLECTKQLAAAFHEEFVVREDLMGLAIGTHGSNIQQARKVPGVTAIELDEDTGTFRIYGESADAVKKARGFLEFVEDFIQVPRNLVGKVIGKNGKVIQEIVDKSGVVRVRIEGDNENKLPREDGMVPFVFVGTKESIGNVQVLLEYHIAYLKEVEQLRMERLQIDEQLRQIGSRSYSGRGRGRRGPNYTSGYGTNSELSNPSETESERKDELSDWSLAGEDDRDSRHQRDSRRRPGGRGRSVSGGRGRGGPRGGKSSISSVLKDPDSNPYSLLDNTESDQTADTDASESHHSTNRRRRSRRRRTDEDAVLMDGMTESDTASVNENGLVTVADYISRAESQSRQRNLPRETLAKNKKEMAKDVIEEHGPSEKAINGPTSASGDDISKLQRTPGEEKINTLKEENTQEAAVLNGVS
UniProt Q9NR30: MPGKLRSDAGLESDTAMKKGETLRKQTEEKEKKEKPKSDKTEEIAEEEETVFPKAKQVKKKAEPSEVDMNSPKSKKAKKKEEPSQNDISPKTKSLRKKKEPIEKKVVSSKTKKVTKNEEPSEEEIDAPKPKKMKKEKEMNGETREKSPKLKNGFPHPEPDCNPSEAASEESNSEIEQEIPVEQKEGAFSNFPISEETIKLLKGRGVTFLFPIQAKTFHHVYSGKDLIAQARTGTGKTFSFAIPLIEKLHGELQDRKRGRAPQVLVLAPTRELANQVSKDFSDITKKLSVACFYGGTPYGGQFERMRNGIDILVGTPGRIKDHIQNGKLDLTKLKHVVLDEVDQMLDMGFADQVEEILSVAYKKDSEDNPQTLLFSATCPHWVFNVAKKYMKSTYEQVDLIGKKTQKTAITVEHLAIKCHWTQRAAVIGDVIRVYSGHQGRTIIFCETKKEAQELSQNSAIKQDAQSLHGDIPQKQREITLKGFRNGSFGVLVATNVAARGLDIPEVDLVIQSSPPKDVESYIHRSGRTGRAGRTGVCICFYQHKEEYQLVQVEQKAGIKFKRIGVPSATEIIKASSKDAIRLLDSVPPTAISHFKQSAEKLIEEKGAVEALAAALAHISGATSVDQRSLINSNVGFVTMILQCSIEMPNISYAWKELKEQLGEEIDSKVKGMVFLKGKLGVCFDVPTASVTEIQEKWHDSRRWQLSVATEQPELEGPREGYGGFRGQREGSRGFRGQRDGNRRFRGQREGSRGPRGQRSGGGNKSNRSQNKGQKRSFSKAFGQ
UniProt Q14978: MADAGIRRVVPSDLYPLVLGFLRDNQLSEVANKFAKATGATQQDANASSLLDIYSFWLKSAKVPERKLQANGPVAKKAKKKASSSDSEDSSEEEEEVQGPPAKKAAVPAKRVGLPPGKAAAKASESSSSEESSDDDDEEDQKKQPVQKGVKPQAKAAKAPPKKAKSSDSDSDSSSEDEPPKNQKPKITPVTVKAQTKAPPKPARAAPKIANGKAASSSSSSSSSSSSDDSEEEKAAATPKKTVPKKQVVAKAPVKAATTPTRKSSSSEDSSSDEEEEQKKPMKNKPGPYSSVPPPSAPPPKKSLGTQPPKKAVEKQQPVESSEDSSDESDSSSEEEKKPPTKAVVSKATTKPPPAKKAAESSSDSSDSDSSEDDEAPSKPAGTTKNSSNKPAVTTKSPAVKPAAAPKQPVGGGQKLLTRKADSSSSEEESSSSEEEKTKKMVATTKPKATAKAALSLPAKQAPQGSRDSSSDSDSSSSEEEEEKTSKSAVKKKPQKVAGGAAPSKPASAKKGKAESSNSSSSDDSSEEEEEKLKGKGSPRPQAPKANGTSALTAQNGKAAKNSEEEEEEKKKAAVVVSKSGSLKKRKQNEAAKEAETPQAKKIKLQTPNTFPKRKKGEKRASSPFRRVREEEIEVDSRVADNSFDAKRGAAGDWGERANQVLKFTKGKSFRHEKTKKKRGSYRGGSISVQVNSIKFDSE

In the assay the target is Fragile-X-mental retardation related protein 1 (FXR1) (human (endogenous in THP1)) (UniProt P51114). Description: affinity purification with mass spectrometry.

No constants are given. Whether binding was seen depends on the method and setting. In cells and extracts the contact can be indirect. These calls come from enrichment with a bait or labelling near it, and not all partners need be listed.

On to DDX21 (from UniProt Q9NR30 1-783), for which the binding entry is “binds”.
Then NOLC1 (from UniProt Q14978 1-699), with “binds”.
